Experimental data published in PMC10877634.
Results are given in words; binding and its absence hold for the method and conditions named. Binding seen in cells or lysates may run through a third protein. Some results given as binding are weak or reduced against the parent protein; the word gives no strength.

The chains behind the UniProt entries cited, without tags or fusion partners.
UniProt P05198: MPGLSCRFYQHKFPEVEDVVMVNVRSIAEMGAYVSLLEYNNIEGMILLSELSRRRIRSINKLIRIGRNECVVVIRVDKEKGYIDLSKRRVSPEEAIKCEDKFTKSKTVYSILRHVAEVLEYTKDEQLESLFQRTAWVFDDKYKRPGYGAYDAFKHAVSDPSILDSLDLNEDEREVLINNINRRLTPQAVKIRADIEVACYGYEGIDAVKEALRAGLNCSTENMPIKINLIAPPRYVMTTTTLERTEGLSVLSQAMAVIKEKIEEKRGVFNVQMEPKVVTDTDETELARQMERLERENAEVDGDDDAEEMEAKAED
UniProt Q9UNE7: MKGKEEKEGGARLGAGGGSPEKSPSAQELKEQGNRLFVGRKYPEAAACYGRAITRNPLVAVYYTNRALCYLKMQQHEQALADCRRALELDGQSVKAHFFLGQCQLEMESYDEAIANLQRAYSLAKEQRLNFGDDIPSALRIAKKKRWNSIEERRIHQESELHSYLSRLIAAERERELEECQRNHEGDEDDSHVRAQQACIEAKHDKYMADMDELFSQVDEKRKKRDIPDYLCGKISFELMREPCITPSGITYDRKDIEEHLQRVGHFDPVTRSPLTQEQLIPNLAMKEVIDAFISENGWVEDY

Biological target: FLAG-tagged eukaryotic translation initiation factor 2 subunit α (human) (UniProt P05198)
Experiment: co-IP; HEK293T and H1299 cells transfected for 48 h; 1 mg RIPA lysate with 10 μl anti-Flag M2 agarose, 4 °C, 4.5 h, washed with TBS; blot with anti-CHIP antibody

Substance	binding
carboxyl terminus of the HSC70-interaction protein (endogenous) (from UniProt Q9UNE7 1-303) (enzyme)	binds
carboxyl terminus of the HSC70-interaction protein (exogenous) (from UniProt Q9UNE7 1-303) (enzyme)	binds
